{"source": "PubChem BioAssay AID686943 (Drosophila RNAi Screening Center, 2013)", "screen": "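Fly genes whose loss alters ERK activation after insulin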 (primary screen)", "cell system": "Drosophila S2R+ haemocyte-like cells expressing YFP-tagged ERK (Rolled)", "reagents": "long dsRNA against Drosophila genes", "conditions": "insulin stimulation versus unstimulated cells; dose and duration not given", "measured": "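Antibody staining for doubly phosphorylated ERK divided by ERK-YFP signal, as plate z-scores, in insulin-treated and untreated cells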", "direction": "replicate 1, z-score of dpERK with insulin and replicate 2, z-score of dpERK with insulin: higher = more active ERK per ERK-YFP after insulin", "note": "The screen tested about 23,000 reagents; this is an unselected part of those with a known target gene and a result. 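Extra replicates exist only for a retested subset of genes; insulin dose and duration not given; both raised and lowered dpERK matter.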 Not all columns of the deposit are shown. Reagent sequences are not shown. Not given: the amount of reagent, the time to read-out."}
{"target gene": "CG14696", "dsRNA": "DRSC14919", "replicate 1, z-score of dpERK with insulin": -0.25, "replicate 2, z-score of dpERK with insulin": -0.98}
{"target gene": "CG33475", "dsRNA": "DRSC22943", "replicate 1, z-score of dpERK with insulin": 0.27, "replicate 2, z-score of dpERK with insulin": 0.61}
{"target gene": "lds", "dsRNA": "DRSC16988", "replicate 1, z-score of dpERK with insulin": 0.22, "replicate 2, z-score of dpERK with insulin": -0.32}
{"target gene": "RecQ5", "dsRNA": "DRSC11266", "replicate 1, z-score of dpERK with insulin": 0.29, "replicate 2, z-score of dpERK with insulin": 0.99}
{"target gene": "CG12056", "dsRNA": "DRSC17796", "replicate 1, z-score of dpERK with insulin": -0.02, "replicate 2, z-score of dpERK with insulin": 0.58}
{"target gene": "CG42500", "dsRNA": "DRSC14822", "replicate 1, z-score of dpERK with insulin": 1.2, "replicate 2, z-score of dpERK with insulin": -1.52}
{"target gene": "CG9570", "dsRNA": "DRSC20687", "replicate 1, z-score of dpERK with insulin": 0.99, "replicate 2, z-score of dpERK with insulin": 0.72}

Only “replicate 2, z-score of dpERK with insulin” (2 entries from above):
lds [DRSC16988] = -0.32
RecQ5 [DRSC11266] = 0.99

Continued.
{"target gene": "heix", "dsRNA": "DRSC03542", "replicate 1, z-score of dpERK with insulin": 0.46, "replicate 2, z-score of dpERK with insulin": -0.52}
{"target gene": "CG5162", "dsRNA": "DRSC19935", "replicate 1, z-score of dpERK with insulin": -1.07, "replicate 2, z-score of dpERK with insulin": -0.73}
{"target gene": "Syx18", "dsRNA": "DRSC14628", "replicate 1, z-score of dpERK with insulin": 1.68, "replicate 2, z-score of dpERK with insulin": -0.09}
{"target gene": "Orct", "dsRNA": "DRSC16777", "replicate 1, z-score of dpERK with insulin": 0.3, "replicate 2, z-score of dpERK with insulin": 0.53}
{"target gene": "dikar", "dsRNA": "DRSC09699", "replicate 1, z-score of dpERK with insulin": -0.64, "replicate 2, z-score of dpERK with insulin": -0.83}
{"target gene": "dikar", "dsRNA": "DRSC22261", "replicate 1, z-score of dpERK with insulin": -3.28, "replicate 2, z-score of dpERK with insulin": 0.05}
